Percent effect of library compounds

Protein sequences, listed by entry. Tags and fused reporters are not part of them. Residues count along the entry.
UniProt I6X8D2, whole entry: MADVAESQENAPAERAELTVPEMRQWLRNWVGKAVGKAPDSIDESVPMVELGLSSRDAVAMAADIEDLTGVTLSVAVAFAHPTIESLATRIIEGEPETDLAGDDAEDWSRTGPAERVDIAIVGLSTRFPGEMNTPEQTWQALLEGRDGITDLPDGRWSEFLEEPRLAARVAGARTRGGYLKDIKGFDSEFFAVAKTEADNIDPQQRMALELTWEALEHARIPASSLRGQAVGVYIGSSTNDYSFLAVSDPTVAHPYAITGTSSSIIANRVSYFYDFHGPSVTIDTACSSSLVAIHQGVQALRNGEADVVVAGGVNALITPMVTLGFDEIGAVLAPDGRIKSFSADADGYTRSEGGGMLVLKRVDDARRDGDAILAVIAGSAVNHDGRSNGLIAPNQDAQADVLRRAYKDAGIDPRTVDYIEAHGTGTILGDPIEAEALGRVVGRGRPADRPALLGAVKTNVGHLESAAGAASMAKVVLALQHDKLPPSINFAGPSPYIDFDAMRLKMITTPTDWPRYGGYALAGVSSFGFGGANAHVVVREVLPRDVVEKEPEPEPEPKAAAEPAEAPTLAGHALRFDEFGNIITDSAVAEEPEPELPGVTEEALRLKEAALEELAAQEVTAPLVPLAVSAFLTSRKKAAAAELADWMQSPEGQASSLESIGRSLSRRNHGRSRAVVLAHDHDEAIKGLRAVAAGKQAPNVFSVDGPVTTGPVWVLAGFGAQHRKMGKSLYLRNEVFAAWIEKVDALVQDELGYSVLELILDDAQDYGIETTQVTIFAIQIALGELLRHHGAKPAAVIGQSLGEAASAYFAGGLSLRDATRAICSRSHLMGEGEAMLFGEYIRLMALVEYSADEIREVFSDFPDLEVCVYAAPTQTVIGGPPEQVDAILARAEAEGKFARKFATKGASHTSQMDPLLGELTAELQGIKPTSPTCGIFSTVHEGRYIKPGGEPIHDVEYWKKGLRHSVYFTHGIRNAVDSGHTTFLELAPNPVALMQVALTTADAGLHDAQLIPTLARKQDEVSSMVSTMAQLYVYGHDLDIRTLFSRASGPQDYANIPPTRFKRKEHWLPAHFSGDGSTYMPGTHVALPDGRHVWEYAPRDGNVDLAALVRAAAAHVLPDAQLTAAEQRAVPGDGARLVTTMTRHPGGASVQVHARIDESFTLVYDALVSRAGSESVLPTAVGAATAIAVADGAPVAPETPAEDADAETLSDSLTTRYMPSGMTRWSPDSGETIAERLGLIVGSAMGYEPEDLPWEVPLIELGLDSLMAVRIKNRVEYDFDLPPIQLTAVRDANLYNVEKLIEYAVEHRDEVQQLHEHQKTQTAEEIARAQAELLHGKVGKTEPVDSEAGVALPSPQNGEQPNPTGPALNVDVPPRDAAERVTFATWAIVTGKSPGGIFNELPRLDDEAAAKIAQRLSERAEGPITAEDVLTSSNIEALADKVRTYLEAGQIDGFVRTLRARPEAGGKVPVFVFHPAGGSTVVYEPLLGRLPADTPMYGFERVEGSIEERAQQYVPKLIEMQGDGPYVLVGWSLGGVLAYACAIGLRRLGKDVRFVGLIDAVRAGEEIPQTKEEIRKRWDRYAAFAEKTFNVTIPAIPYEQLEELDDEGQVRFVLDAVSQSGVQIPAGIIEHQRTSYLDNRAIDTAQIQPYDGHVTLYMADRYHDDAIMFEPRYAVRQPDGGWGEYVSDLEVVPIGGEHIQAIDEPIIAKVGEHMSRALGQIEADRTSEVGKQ
UniProt Q4DA54, 1-478: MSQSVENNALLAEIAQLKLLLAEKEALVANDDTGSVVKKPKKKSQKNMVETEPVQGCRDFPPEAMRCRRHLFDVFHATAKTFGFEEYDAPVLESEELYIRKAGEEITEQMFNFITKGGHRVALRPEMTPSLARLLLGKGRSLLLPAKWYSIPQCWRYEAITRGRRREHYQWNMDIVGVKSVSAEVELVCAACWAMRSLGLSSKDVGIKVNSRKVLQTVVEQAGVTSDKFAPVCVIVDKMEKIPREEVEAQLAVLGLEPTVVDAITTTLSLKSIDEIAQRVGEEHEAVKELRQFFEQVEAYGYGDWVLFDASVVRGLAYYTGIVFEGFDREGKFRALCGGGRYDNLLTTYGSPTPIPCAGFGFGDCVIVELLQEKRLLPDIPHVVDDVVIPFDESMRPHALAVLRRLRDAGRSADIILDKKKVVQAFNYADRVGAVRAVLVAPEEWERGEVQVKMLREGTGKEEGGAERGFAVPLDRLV
UniProt P9WFT3, whole entry: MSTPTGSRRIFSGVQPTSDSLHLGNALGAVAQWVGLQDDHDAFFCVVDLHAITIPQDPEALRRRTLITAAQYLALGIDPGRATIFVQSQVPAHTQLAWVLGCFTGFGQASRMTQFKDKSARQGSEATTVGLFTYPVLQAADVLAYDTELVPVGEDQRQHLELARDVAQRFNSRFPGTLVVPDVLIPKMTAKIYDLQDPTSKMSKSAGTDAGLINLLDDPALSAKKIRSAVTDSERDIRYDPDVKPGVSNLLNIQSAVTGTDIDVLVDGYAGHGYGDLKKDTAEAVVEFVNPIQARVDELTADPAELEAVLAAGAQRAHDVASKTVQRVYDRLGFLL
UniProt P9WPC5, whole entry: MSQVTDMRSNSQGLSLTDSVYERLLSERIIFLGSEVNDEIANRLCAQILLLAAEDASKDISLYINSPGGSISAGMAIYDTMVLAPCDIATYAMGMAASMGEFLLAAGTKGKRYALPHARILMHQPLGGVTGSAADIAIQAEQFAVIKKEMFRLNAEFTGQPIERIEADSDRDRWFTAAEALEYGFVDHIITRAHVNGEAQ
UniProt P9WPC3, whole entry partner: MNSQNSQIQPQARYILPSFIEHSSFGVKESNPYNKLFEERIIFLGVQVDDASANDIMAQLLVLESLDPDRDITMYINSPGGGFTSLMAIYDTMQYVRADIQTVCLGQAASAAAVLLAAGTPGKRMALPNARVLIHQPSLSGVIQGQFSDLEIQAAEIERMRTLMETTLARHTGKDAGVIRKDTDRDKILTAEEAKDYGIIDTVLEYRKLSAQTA

Results are given as percent effect.
How 0% and 100% were set is not recorded. Most values in the screen are low, and negative values occur.
The compounds are a random part of those screened.

Pks13 thioesterase: 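Enzyme assay of the thioesterase domain of polyketide synthase 13; the read-out is not stated. Target: Polyketide synthase Pks13, Mycobacterium tuberculosis (UniProt I6X8D2). Tested at 30 µM. Higher reads as stronger inhibition (inferred from which compounds were picked for retests). Of about 67,000 compounds tested this way, about 300 (0.46%) reached 50% or more in at least one test.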
TcHisRS: 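Histidine-tRNA ligase, Trypanosoma cruzi CL Brener (UniProt Q4DA54). Enzyme assay of histidyl-tRNA synthetase; the read-out is not stated. Tested at 30 µM. The record gives no direction; compounds that gave an IC50 in retests scored well above the rest, so higher reads as stronger inhibition. Size under these conditions: about 69,000 compounds, about 31 of them at 50% or above in at least one test.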
MtTrpRS: 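Enzyme assay of tryptophanyl-tRNA synthetase; the read-out is not stated. Target: Tryptophan-tRNA ligase, Mycobacterium tuberculosis (UniProt P9WFT3). Tested at 10 µM. Direction is not recorded; retested compounds ran higher, which suggests that high means inhibition. Of about 65,000 compounds tested this way, about 64 (0.098%) reached 50% or more in at least one test.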
ClpP1P2: 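ClpP1P2, Mycobacterium tuberculosis (UniProt P9WPC5 and UniProt P9WPC3). Protease assay of ClpP1P2, read by the AMC dye that it sets free. Tested at 50 µM. Higher reads as stronger inhibition, judged from the few compounds that gave an IC50. Most other retested compounds had strongly negative values. Size under these conditions: about 69,000 compounds, about 10 of them at 50% or above in at least one test.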

For C[C@@]1(O)CCN(C2CCOCC2)C[C@H]1n1ccc(=O)[nH]c1=O the result was Pks13 thioesterase: -11.84%; TcHisRS: 0.7576%; MtTrpRS: 0.2764%; ClpP1P2: 15.01%.
For CSc1ccc(CNc2ccccc2CN2CCC(O)CC2)cc1 the result was Pks13 thioesterase: -15.61%; TcHisRS: 2.597%; MtTrpRS: -2.786%; ClpP1P2: -8.116%.
For CCN(Cc1nc(COC)no1)C(=O)CCNC(=O)c1ccccc1F the result was Pks13 thioesterase: -10.61%; TcHisRS: 7.229%; MtTrpRS: 1.314%; ClpP1P2: -9.998%.
For COCCNC(=O)[C@@]12CCO[C@@H]1CCN(Cc1scnc1C)C2 the result was TcHisRS: 4.301%; MtTrpRS: 0.5578%; ClpP1P2: 4.712%.
For O=C(CCn1c(C(F)(F)F)cc2cccnc21)N1CCC(O)CC1 the result was Pks13 thioesterase: 6.349%; TcHisRS: 5.224%; MtTrpRS: 0.8696%; ClpP1P2: -3.264%.
For O=C([C@@H]1CCCO1)N1CCn2c(Cn3cccn3)cnc2C1 the result was Pks13 thioesterase: -24.17%; TcHisRS: 0%; MtTrpRS: -1.564%; ClpP1P2: -2.004%.
For COc1ccc(CCC(=O)N(C(C)C)C2CCOCC2)cc1 the result was Pks13 thioesterase: -35.39%; TcHisRS: 7.182%; MtTrpRS: -6.745%; ClpP1P2: -6.198%.
For COc1ccc(CN2C[C@@H](OCc3csc(C)n3)[C@H]3COC[C@H]32)cc1 the result was Pks13 thioesterase: -5.347%; TcHisRS: 4.132%; MtTrpRS: -2.22%; ClpP1P2: -9.234%.
For c1nc(CCNc2nc(C3CC3)nc3c2CCNCC3)c[nH]1 the result was Pks13 thioesterase: -42.6%; TcHisRS: 3.261%; MtTrpRS: -6.202%; ClpP1P2: -13.88%.
For NC1(c2nc(-c3ccccc3)cc(=O)[nH]2)CCCC1 the result was Pks13 thioesterase: -8.827%; TcHisRS: 10.78%; MtTrpRS: -2.427%; ClpP1P2: 3.115%.
For O=C(c1cnn2c1OCCC2)N1CCC(Cc2ccccc2)CC1 the result was Pks13 thioesterase: -4.052%; TcHisRS: 7.538%; MtTrpRS: 4.696%; ClpP1P2: -5.325%.
For Cc1ccccc1N1CC2(CCN(S(=O)(=O)c3cccs3)C2)CC1=O (centres unmarked) the result was Pks13 thioesterase: 1.959%; TcHisRS: 1.504%; MtTrpRS: -0.687%; ClpP1P2: 18.81%.
For Cc1cncc(C2CCN(Cc3cccn3C)CC2)n1 the result was Pks13 thioesterase: -24.04%; TcHisRS: -1.099%; ClpP1P2: -13.3%.
For CCc1ncc(C(=O)N(C)C2Cc3ccccc3C2)cn1 the result was Pks13 thioesterase: -7.353%; TcHisRS: 0%; MtTrpRS: -1.728%; ClpP1P2: -11.69%.
For Cn1c(C(=O)NC2CCCC2)nc2c1CCN(Cc1ccccc1)C2 the result was Pks13 thioesterase: -21.63%; TcHisRS: 10.34%; MtTrpRS: -5.41%; ClpP1P2: 2.75%.
For COc1ccccc1OC1CCN(C(=O)c2cnc(C)s2)CC1 the result was Pks13 thioesterase: 9.614%; TcHisRS: 5.952%; MtTrpRS: 3.53%; ClpP1P2: -3.355%.
For CCOC(=O)Cn1c(=O)nc2n1C(=O)N(c1ccccc1)C2 the result was Pks13 thioesterase: -31.15%; TcHisRS: -1.212%; MtTrpRS: -6.057%; ClpP1P2: -0.2213%.
For O=C(C1CC1)N1CCC(O)(CN2CCN(c3ccccc3)CC2)C1 (centres unmarked) the result was Pks13 thioesterase: 4.077%; TcHisRS: 5.385%; MtTrpRS: 0.3397%; ClpP1P2: -4.411%.
For Cc1nc(C)n(CC2CCCN(CCc3ccccc3)C2)n1 (centres unmarked) the result was Pks13 thioesterase: -16.69%; TcHisRS: 3.152%; MtTrpRS: 5.726%; ClpP1P2: -14.49%.

Some entries from above, unchanged:

compound,Pks13 thioesterase,TcHisRS,MtTrpRS,ClpP1P2
Cn1c(C(=O)NC2CCCC2)nc2c1CCN(Cc1ccccc1)C2,-21.63%,10.34%,-5.41%,2.75%
COc1ccccc1OC1CCN(C(=O)c2cnc(C)s2)CC1,9.614%,5.952%,3.53%,-3.355%

Measurements from “University of Dundee, Small-Polar-MMV Screening Library” (2021), ChEMBL document CHEMBL3988442.